From PMC11780864, “RNA G-quadruplex structure-based PROTACs for targeted DHX36 protein degradation and gene activity modulation in mammalian cells”
For at least one entry, the source does not settle the construct or the ends of the probe. Tags and fusion partners may be left off the protein sequences shown.

Molecular target: T1, RHAU53 peptide (DHX36 fragment) (UniProt Q9H2U1)
T1 sequence (limits assumed): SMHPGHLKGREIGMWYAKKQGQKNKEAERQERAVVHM
Assay: competition with a labelled probe
Settings: EMSA vs 30 nM FAM_rG4_A, 100 nM RHAU53, incomplete displacement; 5'-hexynyl clicked to AHPC-PEG2; EMSA and MST: 25 mM Tris-HCl pH 7.5, 150 mM KCl, 1 mM MgCl2, 37 C 30 min; 30 nM (EMSA) or 40 nM (MST) FAM-oligo; EMSA gel 10% native PAGE, 0.5x TBE, 4 C; folded or branched DNA

TTGGGTGGGTGGGTGGGT [dG4_A (unlabelled)] gave an IC50 of 684 nM.
